Test results from the supplement of paper PMC8728848.
This is one part of the list.

What was measured:
Test in all cases: glycan array binding signal (z-score within array); higher = stronger binding
Settings in all cases: glycan notation: IUPAC condensed, linker removed
[1] = molecular target: Neu5Ac(a2-3)Gal(b1-3)[Fuc(a1-4)]GlcNAc
Method in brief: (§1)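 Glycan array data came from 3228 arrays in the Consortium for Functional Glycomics database, and only arrays with an available protein sequence were kept. Glycan names were put into IUPAC-condensed notation, and columns mapping to the same glycan were averaged. The binding signal is a within-array Z-score, averaged across arrays of one protein sequence run at different concentrations or buffers and across linkers. A negative Z-score can be read as non-binding.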

[2] = molecular target: Neu5Ac(a2-3)Gal(b1-3)[Fuc(a1-4)]GlcNAc(b1-3)Gal(b1-3)[Fuc(a1-4)]GlcNAc
Method in brief: as §1

[3] = molecular target: Neu5Ac(a2-3)Gal(b1-3)[Fuc(a1-4)]GlcNAc(b1-3)Gal(b1-4)[Fuc(a1-3)]GlcNAc
Method in brief: as §1

[4] = molecular target: Neu5Ac(a2-3)Gal(b1-3)[GlcNAc(b1-6)]GalNAc
Method in brief: as §1

[5] = molecular target: Neu5Ac(a2-3)Gal(b1-3)[Neu5Ac(a2-6)]GalNAc
Method in brief: as §1

[6] = molecular target: Neu5Ac(a2-3)Gal(b1-3)[Neu5Ac(a2-6)]GlcNAc(b1-3)[Fuc(a1-3)[Gal(b1-4)]GlcNAc(b1-6)]Gal(b1-4)Glc
Method in brief: as §1

[7] = molecular target: Neu5Ac(a2-3)Gal(b1-3)]Neu5Ac(a2-3)Gal(b1-4)]GlcNAc
Method in brief: as §1

[8] = molecular target: Neu5Ac(a2-3)Gal(b1-4)Glc
Method in brief: as §1

[9] = molecular target: Neu5Ac(a2-3)Gal(b1-4)GlcNAc
Method in brief: as §1

[10] = molecular target: Neu5Ac(a2-3)Gal(b1-4)GlcNAc(b1-2)Man
Method in brief: as §1

[11] = molecular target: Neu5Ac(a2-3)Gal(b1-4)GlcNAc(b1-2)Man(a1-3)[GlcNAc(b1-4)][Neu5Ac(a2-3)Gal(b1-4)GlcNAc(b1-2)Man(a1-6)]Man(b1-4)GlcNAc(b1-4)GlcNAc
Method in brief: as §1

[12] = molecular target: Neu5Ac(a2-3)Gal(b1-4)GlcNAc(b1-2)Man(a1-3)[Neu5Ac(a2-3)Gal(b1-4)GlcNAc(b1-2)Man(a1-6)]Man(b1-4)GlcNAc(b1-4)GlcNAc
Method in brief: as §1

[13] = molecular target: Neu5Ac(a2-3)Gal(b1-4)GlcNAc(b1-2)Man(a1-3)[Neu5Ac(a2-3)Gal(b1-4)GlcNAc(b1-2)Man(a1-6)]Man(b1-4)GlcNAc(b1-4)[Fuc(a1-6)]GlcNAc
Method in brief: as §1

[14] = molecular target: Neu5Ac(a2-3)Gal(b1-4)GlcNAc(b1-2)Man(a1-3)[Neu5Ac(a2-6)Gal(b1-4)GlcNAc(b1-2)Man(a1-6)]Man(b1-4)GlcNAc(b1-4)GlcNAc
Method in brief: as §1

[15] = molecular target: Neu5Ac(a2-3)Gal(b1-4)GlcNAc(b1-2)[Neu5Ac(a2-3)Gal(b1-4)GlcNAc(b1-4)]Man(a1-3)[GlcNAc(b1-4)][Neu5Ac(a2-3)Gal(b1-4)GlcNAc(b1-2)[Neu5Ac(a2-3)Gal(b1-4)GlcNAc(b1-6)]Man(a1-6)]Man(b1-4)GlcNAc(b1-4)GlcNAc
Method in brief: as §1

[16] = molecular target: Neu5Ac(a2-3)Gal(b1-4)GlcNAc(b1-2)[Neu5Ac(a2-3)Gal(b1-4)GlcNAc(b1-4)]Man(a1-3)[GlcNAc(b1-4)][Neu5Ac(a2-3)Gal(b1-4)GlcNAc(b1-4)Man(a1-6)]Man(b1-4)GlcNAc(b1-4)GlcNAc
Method in brief: as §1

[17] = molecular target: Neu5Ac(a2-3)Gal(b1-4)GlcNAc(b1-2)[Neu5Ac(a2-3)Gal(b1-4)GlcNAc(b1-6)]Man(a1-6)[Neu5Ac(a2-3)Gal(b1-4)GlcNAc(b1-2)Man(a1-3)]Man(b1-4)GlcNAc(b1-4)GlcNAc
Method in brief: as §1

[18] = molecular target: Neu5Ac(a2-3)Gal(b1-4)GlcNAc(b1-2)[Neu5Ac(a2-3)Gal(b1-4)GlcNAc(b1-6)]Man(a1-6)[Neu5Ac(a2-3)Gal(b1-4)GlcNAc(b1-2)Man(a1-3)][GlcNAc(b1-4)]Man(b1-4)GlcNAc(b1-4)GlcNAc
Method in brief: as §1

[19] = molecular target: Neu5Ac(a2-3)Gal(b1-4)GlcNAc(b1-3)Gal
Method in brief: as §1

[20] = molecular target: Neu5Ac(a2-3)Gal(b1-4)GlcNAc(b1-3)Gal(b1-3)GlcNAc
Method in brief: as §1

[21] = molecular target: Neu5Ac(a2-3)Gal(b1-4)GlcNAc(b1-3)Gal(b1-4)GlcNAc
Method in brief: as §1

[22] = molecular target: Neu5Ac(a2-3)Gal(b1-4)GlcNAc(b1-3)Gal(b1-4)GlcNAc(b1-2)Man(a1-3)[Neu5Ac(a2-3)Gal(b1-4)GlcNAc(b1-3)Gal(b1-4)GlcNAc(b1-2)Man(a1-6)]Man(b1-4)GlcNAc(b1-4)GlcNAc
Method in brief: as §1

[23] = molecular target: Neu5Ac(a2-3)Gal(b1-4)GlcNAc(b1-3)Gal(b1-4)GlcNAc(b1-3)Gal(b1-4)GlcNAc
Method in brief: as §1

[24] = molecular target: Neu5Ac(a2-3)Gal(b1-4)GlcNAc(b1-3)Gal(b1-4)GlcNAc(b1-3)Gal(b1-4)GlcNAc(b1-2)Man(a1-3)[Neu5Ac(a2-3)Gal(b1-4)GlcNAc(b1-3)Gal(b1-4)GlcNAc(b1-3)Gal(b1-4)GlcNAc(b1-2)Man(a1-6)]GalNAc
Method in brief: as §1

[25] = molecular target: Neu5Ac(a2-3)Gal(b1-4)GlcNAc(b1-3)Gal(b1-4)GlcNAc(b1-3)GalNAc
Method in brief: as §1

[26] = molecular target: Neu5Ac(a2-3)Gal(b1-4)GlcNAc(b1-3)Gal(b1-4)GlcNAc(b1-3)[Neu5Ac(a2-3)Gal(b1-4)GlcNAc(b1-3)Gal(b1-4)GlcNAc(b1-6)]GalNAc
Method in brief: as §1

[27] = molecular target: Neu5Ac(a2-3)Gal(b1-4)GlcNAc(b1-3)Gal(b1-4)GlcNAc(b1-6)[Gal(b1-3)]GalNAc
Method in brief: as §1

[28] = molecular target: Neu5Ac(a2-3)Gal(b1-4)GlcNAc(b1-3)Gal(b1-4)[Fuc(a1-3)]GlcNAc
Method in brief: as §1

[29] = molecular target: Neu5Ac(a2-3)Gal(b1-4)GlcNAc(b1-3)GalNAc
Method in brief: as §1

[30] = molecular target: Neu5Ac(a2-3)Gal(b1-4)GlcNAc(b1-3)[Neu5Ac(a2-3)Gal(b1-4)GlcNAc(b1-6)]GalNAc
Method in brief: as §1

[31] = molecular target: Neu5Ac(a2-3)Gal(b1-4)GlcNAc(b1-6)GalNAc
Method in brief: as §1

[32] = molecular target: Neu5Ac(a2-3)Gal(b1-4)GlcNAc(b1-6)[Gal(b1-3)]GalNAc
Method in brief: as §1

[33] = molecular target: Neu5Ac(a2-3)Gal(b1-4)GlcNAc(b1-6)[Neu5Ac(a2-3)Gal(b1-3)]GalNAc
Method in brief: as §1

[34] = molecular target: Neu5Ac(a2-3)Gal(b1-4)GlcNAc6S
Method in brief: as §1

[35] = molecular target: Neu5Ac(a2-3)Gal(b1-4)[Fuc(a1-3)]GlcNAc
Method in brief: as §1

[36] = molecular target: Neu5Ac(a2-3)Gal(b1-4)[Fuc(a1-3)]GlcNAc(b1-2)Man
Method in brief: as §1

[37] = molecular target: Neu5Ac(a2-3)Gal(b1-4)[Fuc(a1-3)]GlcNAc(b1-3)Gal
Method in brief: as §1

[38] = molecular target: Neu5Ac(a2-3)Gal(b1-4)[Fuc(a1-3)]GlcNAc(b1-3)Gal(b1-4)GlcNAc
Method in brief: as §1

[39] = molecular target: Neu5Ac(a2-3)Gal(b1-4)[Fuc(a1-3)]GlcNAc(b1-3)Gal(b1-4)[Fuc(a1-3)]GlcNAc(b1-3)Gal(b1-4)[Fuc(a1-3)]GlcNAc
Method in brief: as §1

[40] = molecular target: Neu5Ac(a2-3)Gal(b1-4)[Fuc(a1-3)]GlcNAc(b1-3)GalNAc
Method in brief: as §1

[41] = molecular target: Neu5Ac(a2-3)Gal(b1-4)[Fuc(a1-3)]GlcNAc(b1-6)[Gal(b1-3)]GalNAc
Method in brief: as §1

[42] = molecular target: Neu5Ac(a2-3)Gal(b1-4)[Fuc(a1-3)]GlcNAc(b1-6)[Neu5Ac(a2-3)Gal(b1-3)]GalNAc
Method in brief: as §1

[43] = molecular target: Neu5Ac(a2-3)Gal(b1-4)[Fuc(a1-3)]GlcNAc6S
Method in brief: as §1

[44] = molecular target: Neu5Ac(a2-3)Gal6S(b1-4)GlcNAc
Method in brief: as §1

[45] = molecular target: Neu5Ac(a2-3)Gal6S(b1-4)[Fuc(a1-3)]GlcNAc
Method in brief: as §1

B1: AntigenI/IIA3VP1 (Streptococcus mutans), C9E3B4 (protein)
chain: AANEADYQAKLTAYQTELARVQKANADAKAAYEAAVAANNAANAALTAENTAIKKRNADAKADYEAKLAKYQADLAKYQKDLADYPVKLKAYEDEQASIKAALAELEKHKNEDGNLTEPSAQNLVYDLEPNANLSLTTDGKFLKASAVDDAFSKSTSKAKYDQKILQLDDLDITNLEQSNDVASSMELYGNFGDKAGWSTTVSNNSQVKWGSVLLERGQSATATYTNLQNSYYNGKKISKIVYKYTVDPKSKFQGQKVWLGIFTDPTLGVFASAYTGQVEKNTSIFIKNEFTFYDEDGKPINFDNALLSVASLNREHNSIEMAKDYSGKFVKISGSSIGEKNGMIYATDTLNFKQGEGGSRWTMYKNSQAGSGWDSSDAPNSWYGAGAIKMSGPNNYVTVGATSATNVMPVSDMPVVPGKDNTDGKKPNIWYSLNGKIRAVNVPKVTKEKPTPPVKPTAPTKPTYETEKPLKPAPVAPNYEKEPTPPTRLEHHHHHH
[1]
  glycan array binding signal (z-score): -0.416
[2]
  glycan array binding signal (z-score): -0.256
[3]
  glycan array binding signal (z-score): -0.387
[4]
  glycan array binding signal (z-score): 0.443
[5]
  glycan array binding signal (z-score): -1.06
[6]
  glycan array binding signal (z-score): -0.099
[7]
  glycan array binding signal (z-score): 0.016
[8]
  glycan array binding signal (z-score): -0.468
[9]
  glycan array binding signal (z-score): 0.013
[10]
  glycan array binding signal (z-score): 0.921
[11]
  glycan array binding signal (z-score): -0.724
[12]
  glycan array binding signal (z-score): -0.3
[13]
  glycan array binding signal (z-score): -1.08
[14]
  glycan array binding signal (z-score): 0.08
[15]
  glycan array binding signal (z-score): 0.01
[16]
  glycan array binding signal (z-score): -0.941
[17]
  glycan array binding signal (z-score): 0.406
[18]
  glycan array binding signal (z-score): -1.35
[19]
  glycan array binding signal (z-score): -1.18
[20]
  glycan array binding signal (z-score): 0.366
[21]
  glycan array binding signal (z-score): -0.616
[22]
  glycan array binding signal (z-score): -0.058
[23]
  glycan array binding signal (z-score): -0.965
[24]
  glycan array binding signal (z-score): 1.4
[25]
  glycan array binding signal (z-score): 1.42
[26]
  glycan array binding signal (z-score): 0.324
[27]
  glycan array binding signal (z-score): -0.29
[28]
  glycan array binding signal (z-score): -0.593
[29]
  glycan array binding signal (z-score): -1.27
[30]
  glycan array binding signal (z-score): 0.764
[31]
  glycan array binding signal (z-score): -1.01
[32]
  glycan array binding signal (z-score): -0.572
[33]
  glycan array binding signal (z-score): 0.145
[34]
  glycan array binding signal (z-score): -0.627
[35]
  glycan array binding signal (z-score): -0.524
[36]
  glycan array binding signal (z-score): 2.24
[37]
  glycan array binding signal (z-score): -0.529
[38]
  glycan array binding signal (z-score): -0.001
[39]
  glycan array binding signal (z-score): -0.07
[40]
  glycan array binding signal (z-score): 1.57
[41]
  glycan array binding signal (z-score): 2.32
[42]
  glycan array binding signal (z-score): 0.167
[43]
  glycan array binding signal (z-score): -1.04
[44]
  glycan array binding signal (z-score): -0.68
[45]
  glycan array binding signal (z-score): -0.675
